{"sequences": {"note": "Protein sequences, listed by entry. Tags and fused reporters are not part of them. Lines headed by an entry give the natural chain unless they say otherwise; changes in a name come on top.", "UniProt Q9UNA4": "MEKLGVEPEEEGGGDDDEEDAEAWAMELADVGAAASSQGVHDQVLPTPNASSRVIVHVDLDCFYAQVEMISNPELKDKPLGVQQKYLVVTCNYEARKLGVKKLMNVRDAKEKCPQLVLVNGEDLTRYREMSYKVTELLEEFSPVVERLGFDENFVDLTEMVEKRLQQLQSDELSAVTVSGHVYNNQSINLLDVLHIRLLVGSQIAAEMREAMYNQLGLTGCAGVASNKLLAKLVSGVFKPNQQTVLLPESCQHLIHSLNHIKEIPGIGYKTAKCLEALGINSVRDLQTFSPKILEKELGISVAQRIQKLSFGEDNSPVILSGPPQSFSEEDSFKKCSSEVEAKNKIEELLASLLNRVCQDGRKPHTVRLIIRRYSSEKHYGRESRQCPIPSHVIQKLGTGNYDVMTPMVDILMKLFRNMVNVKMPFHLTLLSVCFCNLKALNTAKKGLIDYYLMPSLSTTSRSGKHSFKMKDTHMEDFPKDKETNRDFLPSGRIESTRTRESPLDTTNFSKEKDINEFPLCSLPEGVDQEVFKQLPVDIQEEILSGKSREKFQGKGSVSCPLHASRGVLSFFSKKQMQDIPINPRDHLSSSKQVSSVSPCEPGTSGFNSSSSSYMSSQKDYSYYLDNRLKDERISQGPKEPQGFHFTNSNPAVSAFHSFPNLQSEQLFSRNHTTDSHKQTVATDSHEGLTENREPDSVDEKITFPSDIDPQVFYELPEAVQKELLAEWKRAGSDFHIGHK"}, "source": "PubChem BioAssay AID588590", "about": "(National Center for Advancing Translational Sciences (NCATS), 2011)", "note": "About 4,000 (1%) of roughly 390,000 compounds were called active. The inconclusive results got no clear call from the source; some entries with a clear call stand among them for comparison. The call rests on the fitted dose curve; in most records, active means well fitted inhibition curve with a large enough effect; inconclusive means small, poorly fitted or top-dose-only effect, or another doubt; inactive means no such curve, though single readings can be large or run the other way. Potencies beside an inconclusive call are fits to weak or partial responses and may not hold up. Potency means the concentration at half of the fitted maximal effect.", "data": [{"biological_target": "DNA polymerase iota (Homo sapiens) (UniProt Q9UNA4)", "experiment": "qHTS for Inhibitors of Polymerase Iota", "conditions": "Pol iota fluorescent replication assay, 10 min; series mostly up to 115 µM", "method_in_brief": "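Fluorescent replication assay read twice, at 0 min and 10 min after adding 50 nM (final) substrate. Enzyme (10 nM) and compounds were first incubated 15 min at room temperature; enzyme-free buffer wells were negative controls.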", "values": [{"smiles": "CC1CCc2c(cc(-c3ccccc3)n2-c2ccc(C(=O)NC(C)C)cc2)C1", "note": "(centres undefined)", "Potency": "inconclusive: 89.1 µM [inhibitor, single point]"}, {"smiles": "CCC1CCCCN1S(=O)(=O)c1ccc(NC(=O)c2nc(S(C)(=O)=O)ncc2Cl)cc1", "note": "(centres undefined)", "Potency": "inconclusive: 31.6 µM [inhibitor, single point]"}, {"smiles": "C=CCOc1c(Cl)cc(/C=N/O)cc1OC", "Potency": "inconclusive: 79.4 µM [inhibitor, partial curve]"}, {"smiles": "Cc1nc(N2CCC(C)CC2)c2c(C)c(C(=O)O)sc2n1", "Potency": "inconclusive: 20 µM [inhibitor, partial curve, poor fit]"}, {"smiles": "CCOc1cc(C=C(C(=O)OC)C(=O)OC)ccc1OCc1ccc([N+](=O)[O-])cc1", "Potency": "inconclusive: 14.1 µM [inhibitor, partial curve, poor fit]"}, {"smiles": "Cc1nc2ncnn2c(N2CCN(C(=O)Cc3cccs3)CC2)c1C", "Potency": "inconclusive: 15.8 µM [inhibitor, full curve, poor fit]"}, {"smiles": "COCCn1nnnc1C(c1cc2cc(C)cc(C)c2[nH]c1=O)N1CCN(c2ccccc2F)CC1", "note": "(centres undefined)", "Potency": "inconclusive: 89.1 µM [inhibitor, single point]"}, {"smiles": "Cc1cc(NC(=O)CSc2nc(C)c(C)n2CC(C)C)no1", "Potency": "inconclusive: 89.1 µM [inhibitor, partial curve, poor fit]"}, {"smiles": "CCOc1ccc2oc(=O)cc(CN3CCN(C(=O)c4ccc(OC)c(OC)c4)CC3)c2c1", "Potency": "inconclusive: 89.1 µM [inhibitor, single point]"}, {"smiles": "Brc1ccc2[nH]c3c(c2c1)CCC3", "Potency": "inconclusive: 39.8 µM [inhibitor, partial curve, poor fit]"}, {"smiles": "O=C(Cc1cccs1)Nc1ccc(-c2nnn(CC(=O)N3CCOCC3)n2)cc1", "Potency": "inactive"}, {"smiles": "COc1ccc(C2=C(C)C(N3CCC(C(=O)Nc4ccccc4F)CC3)=NS2(=O)=O)cc1", "Potency": "inconclusive: 89.1 µM [inhibitor, single point]"}, {"smiles": "COc1cc(-c2nnc(COC(=O)c3ccc(C)o3)o2)cc(OC)c1OC", "Potency": "inconclusive: 89.1 µM [inhibitor, single point]"}, {"smiles": "O=c1c2cc(-c3ccccc3)sc2ncn1-n1cccc1", "Potency": "inconclusive: 25.1 µM [inhibitor, single point]"}, {"smiles": "Cc1ccc(-c2ccc(CCC(=O)O)n2Cc2ccco2)cc1", "Potency": "inconclusive: 22.4 µM [inhibitor, partial curve]"}, {"smiles": "O=C(NCc1ccncc1)c1ccccc1Nc1ccc(SC(F)F)cc1", "Potency": "inconclusive: 79.4 µM [inhibitor, single point]"}, {"smiles": "O=C1OC2(CCCC2)OC(=O)C1=Cc1c[nH]c2ccccc12", "Potency": "inconclusive: 39.8 µM [inhibitor, single point]"}, {"smiles": "COc1ccc(NC(=O)Cn2c(=O)n(Cc3ccccc3OC)c(=O)c3cccnc32)cc1Cl", "Potency": "inactive"}, {"smiles": "CCc1ccc(CNC(=O)c2cc3n(n2)CCCN(Cc2ccccc2)C3=O)cc1", "Potency": "inactive"}, {"smiles": "CN(C)c1nc(NS(=O)(=O)c2ccc(Cl)cc2)nc(N(C)C)n1", "Potency": "inconclusive: 2.51 µM [inhibitor, partial curve, poor fit]"}, {"smiles": "Cc1ccc2oc(=O)cc(/C=C/c3ccccc3)c2c1", "Potency": "inconclusive: 20 µM [inhibitor, partial curve, poor fit]"}, {"smiles": "Cc1cc(C)nc(/N=C(\\N)Nc2ccc([N+](=O)[O-])cc2)n1", "Potency": "inconclusive: 89.1 µM [inhibitor, partial curve, poor fit]"}, {"smiles": "CCn1c(C)nc2cc(S(=O)(=O)N3CCCC3)ccc21", "Potency": "inconclusive: 39.8 µM [inhibitor, single point]"}, {"smiles": "Cc1ccc2ccc3c(c2n1)NS(=O)(=O)c1ccc(C(F)(F)F)cc1-3", "Potency": "inconclusive: 70.8 µM [inhibitor, partial curve, poor fit]"}, {"smiles": "Cc1cc(NS(=O)(=O)c2ccc(Nc3nc(-c4sc(N)nc4C)cs3)cc2)no1", "Potency": "active: 3.16 µM"}, {"smiles": "Cc1ccc2sc(NNC(=O)c3cc(=O)c4ccccc4o3)nc2c1C", "Potency": "inconclusive: 3.55 µM [inhibitor, full curve]"}, {"smiles": "COc1ccc2nc(-c3ccco3)c(-c3ccco3)nc2c1", "Potency": "inconclusive: 14.1 µM [inhibitor, full curve, poor fit]"}, {"smiles": "COC(=O)c1c(C)[nH]c(C(=O)COc2ccc3ccc(=O)oc3c2)c1C", "Potency": "inconclusive: 17.8 µM [inhibitor, full curve, poor fit]"}, {"smiles": "Cc1ccc(-c2cc(C(=O)Nc3ccc(S(=O)(=O)N4CC(C)OC(C)C4)cc3)[nH]n2)c(O)c1", "note": "(centres undefined)", "Potency": "active: 39.8 µM"}, {"smiles": "Cc1ccc(Cn2nnc3c(=O)[nH]c(C4CCCN(C(=O)Nc5ccc(F)cc5F)C4)nc32)cc1", "note": "(centres undefined)", "Potency": "inconclusive: 89.1 µM [inhibitor, single point]"}, {"smiles": "CCCCOc1ccc(Cn2c(=O)sc3ccccc32)cc1OC", "Potency": "inactive"}, {"smiles": "CCCn1c(CCC(=O)Nc2cc(OC)cc(OC)c2)nc2cccnc21", "Potency": "inactive"}, {"smiles": "CCOc1ccccc1-c1nc(-c2ccc(NC(=O)Cc3ccc(OC)cc3)cc2)no1", "Potency": "inconclusive: 20 µM [inhibitor, full curve, poor fit]"}, {"smiles": "O=C(N/N=C/C=C/c1ccccc1[N+](=O)[O-])c1cc(-c2cccnc2)nc2ccccc12", "Potency": "inconclusive: 7.94 µM [inhibitor, full curve, poor fit]"}, {"smiles": "NNc1nnnc2c1sc1nc(N3CCOCC3)c3c(c12)CCCC3", "Potency": "inconclusive: 15.8 µM [inhibitor, full curve, poor fit]"}, {"smiles": "O=S1(=O)CCOC[C@H](c2ccccc2)N1Cc1ccc(Cl)cc1Cl", "Potency": "inactive"}, {"smiles": "O=C(NC1CCCCC1)N1CCN(C2CCCCC2)CC1", "Potency": "inconclusive: 100 µM [inhibitor, full curve, poor fit]"}, {"smiles": "Cc1cc(-c2nnc(SCC(=O)c3ccc(F)cc3)o2)no1", "Potency": "inactive"}, {"smiles": "O=C1C=Cc2cccc3ccc(O)c1c23", "Potency": "inactive"}, {"smiles": "O=C1/C(=C/c2ccc(F)cc2)SC(=S)N1CC(=O)N1CCCCC1c1cccnc1", "note": "(centres undefined)", "Potency": "inconclusive: 100 µM [inhibitor, single point]"}, {"smiles": "CCC(CO)Oc1cc(NCc2ccc(C(F)(F)F)cc2)c2ncn(C(C)C)c2c1", "note": "(centres undefined)", "Potency": "inconclusive: 35.5 µM [inhibitor, single point]"}, {"smiles": "Cc1cccc(N=C2NC(=O)/C(=C/c3cccnc3)S2)c1C", "Potency": "inconclusive: 10 µM [inhibitor, partial curve, poor fit]"}, {"smiles": "COc1ccc(C(=O)O)cc1S(=O)(=O)NCc1ccncc1", "Potency": "inconclusive: 35.5 µM [inhibitor, partial curve]"}, {"smiles": "Cn1c(=O)c2c([nH]c(=S)n2CCCc2ccccc2)n(C)c1=O", "Potency": "inactive"}, {"smiles": "O=C(CN1C(=O)/C(=C\\c2ccccc2Cl)Oc2ccccc21)NCc1cccnc1", "Potency": "inconclusive: 15.8 µM [inhibitor, full curve, poor fit]"}, {"smiles": "COC(=O)c1cc(CNC(=O)Cc2ccsc2)ccc1OC", "Potency": "inactive"}, {"smiles": "Oc1c(Br)cc(/C=N/n2c(-c3ccccc3)n[nH]c2=S)c(O)c1Br", "Potency": "inconclusive: 8.91 µM [inhibitor, partial curve, poor fit]"}, {"smiles": "CCCCOC(=O)c1ccc(N)cc1", "Potency": "inconclusive: 89.1 µM [inhibitor, partial curve]"}, {"smiles": "N#C/C(=C\\c1ccc(OCc2ccc(Cl)cc2)cc1)C(=O)Nc1cccc(C(=O)O)c1", "Potency": "inconclusive: 31.6 µM [inhibitor, partial curve, poor fit]"}, {"smiles": "COc1ccccc1C(=O)N/N=C/c1cnc2ccccc2n1", "Potency": "inactive"}, {"smiles": "CC(=O)OC1COC(N2CCc3ccccc32)C(OC(C)=O)C1OC(C)=O", "note": "(centres undefined)", "Potency": "inconclusive: 14.1 µM [inhibitor, single point]"}, {"smiles": "Cc1ccccc1NC(=O)Cc1nc(COC(=O)Cc2c(F)cccc2Cl)cs1", "Potency": "inconclusive: 63.1 µM [inhibitor, single point]"}, {"smiles": "Cc1nc2[nH]c(=O)n(O)c(=O)c2s1", "Potency": "inconclusive: 89.1 µM [inhibitor, single point]"}, {"smiles": "CCOc1ccc(NC(=O)CCSc2nc3c(c(CC)c2C#N)C(=O)CC(C)(C)C3)cc1", "Potency": "inconclusive: 35.5 µM [inhibitor, single point]"}, {"smiles": "Cc1noc(C)c1S(=O)(=O)N(CC(=O)O)c1ccc2c(c1)OCO2", "Potency": "inconclusive: 44.7 µM [inhibitor, partial curve, poor fit]"}, {"smiles": "O=c1[nH]c(=O)c2[nH]c(=S)[nH]c2[nH]1", "Potency": "inconclusive: 28.2 µM [inhibitor, partial curve]"}, {"smiles": "Cc1ccc2cc(/C=N/NC(=O)c3ccccc3O)c(Cl)nc2c1", "Potency": "inactive"}, {"smiles": "O=C1/C(=C\\c2cccnc2)CCc2ccccc21", "Potency": "inconclusive: 15.8 µM [inhibitor, partial curve, poor fit]"}, {"smiles": "CC(=O)Cc1nsc(NC(=O)c2csc3c2CCCC3)n1", "Potency": "inconclusive: 2 µM [inhibitor, partial curve, poor fit]"}, {"smiles": "Cc1nc(SCC(=O)Nc2cc(C(N)=O)cc(C(N)=O)c2)c2c(C)c(C)sc2n1", "Potency": "inconclusive: 39.8 µM [inhibitor, single point]"}, {"smiles": "CCn1c2ccccc2c2nnc(SCC(=O)Nc3ccc4c(c3)OCO4)nc21", "Potency": "inconclusive: 39.8 µM [inhibitor, single point]"}, {"smiles": "Cc1cccc(NC(=O)CCn2cnc3ccccc3c2=O)c1", "Potency": "inconclusive: 63.1 µM [inhibitor, partial curve, poor fit]"}, {"smiles": "CCn1cc([N+](=O)[O-])c(C(=O)N2N=C(c3cccc4ccccc34)CC2c2ccccc2O)n1", "note": "(centres undefined)", "Potency": "inconclusive: 89.1 µM [inhibitor, partial curve]"}, {"smiles": "COc1ccc(CC(=O)Nc2nc(-c3cccc([N+](=O)[O-])c3)cs2)cc1", "Potency": "inconclusive: 89.1 µM [inhibitor, single point]"}]}]}
